Publication PMC6079455, “Discovery of Novel Caeridins from the Skin Secretion of the Australian White's Tree Frog, Litoria caerulea” (International Journal of Genomics, 2018)
Ends that are not written are not given here.

Experiment: Secondary structure from CD spectra by K2D3
Type: physicochemical
Conditions: K2D3 programme, 100 μM peptide, 20°C, 10 mM NH4Ac with 50% TFE

Substance | α (helices) [%] | β (strands) [%]
GLFDIVGKLLGGLGL-NH2 [Caeridin-a1] | 95.13 | 0.02
GLLDGLLGTLGL-NH2 [Caeridin-1] | 86.68 | 0.02
N2H-GLLDSLLGGLGL-CONH2 [S5-Caeridin-1, novel Caeridin peptide from Litoria caerulea skin secretion, synthetic replicate, C-terminally amidated] | 94.98 | 0.01
